Assay results taken from patent US7166621B2, “Pyridyloxyalkanoic acid amide derivatives useful as fungicides” (priority 2001, dated 2007).
Some results were stated once for a whole list of compounds, not compound by compound.

Key:
[1] = tested on: Pythium ultimum; assay: Damping off, growth inhibition in potato dextrose broth, 96-well microtiter plate, photometric; assay type: cell-based; conditions: 20 ppm
[2] = tested on: Plasmopara viticola; assay: Leaf disk assay, downy mildew of grapevine, preventive fungicidal activity; assay type: in vivo; conditions: 200 ppm

SMILES	control of Pythium ultimum [1]	control of Plasmopara viticola [2]
CC#CC(C)(C)NC(=O)C(CC)Oc1cncc(Br)c1 (single isomer, unassigned; (-)) [(−) isomer of Compound 13 of Table 1, (−) 2-(5-bromo-3-pyridyloxy)-N-(4-methylpent-2-yn-4-yl)butyramide]	at least 70%	at least 70%
C=Cc1cncc(OC(CC)C(=O)NC(C)(C)C#CC)c1 (stereo not drawn) [Compound No. 374 of Table 1, 2-(5-ethenyl-3-pyridyloxy)-N-(4-methylpent-2-yn-4-yl)butyramide]	at least 70%	–
